Reference: the supplement of paper PMC10849652
Some of the results follow.

Sequences of proteins named here, by UniProt entry; tags and fusion partners are left off. A change or cut given only in a name is not applied to a line headed by its entry.
UniProt Q9BPX6: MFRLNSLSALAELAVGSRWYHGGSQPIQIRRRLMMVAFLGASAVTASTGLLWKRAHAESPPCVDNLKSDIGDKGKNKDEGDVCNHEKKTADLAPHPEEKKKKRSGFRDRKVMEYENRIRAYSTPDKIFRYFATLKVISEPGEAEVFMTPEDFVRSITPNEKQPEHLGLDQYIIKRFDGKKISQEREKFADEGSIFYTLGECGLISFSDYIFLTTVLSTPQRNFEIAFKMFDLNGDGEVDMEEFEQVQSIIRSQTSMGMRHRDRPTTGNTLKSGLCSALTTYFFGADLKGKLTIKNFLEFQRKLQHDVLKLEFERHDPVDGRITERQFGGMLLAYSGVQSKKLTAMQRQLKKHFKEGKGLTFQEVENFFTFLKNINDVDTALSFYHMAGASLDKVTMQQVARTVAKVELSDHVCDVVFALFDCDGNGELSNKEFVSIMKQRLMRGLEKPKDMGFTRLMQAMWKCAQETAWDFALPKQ
UniProt Q9BU76: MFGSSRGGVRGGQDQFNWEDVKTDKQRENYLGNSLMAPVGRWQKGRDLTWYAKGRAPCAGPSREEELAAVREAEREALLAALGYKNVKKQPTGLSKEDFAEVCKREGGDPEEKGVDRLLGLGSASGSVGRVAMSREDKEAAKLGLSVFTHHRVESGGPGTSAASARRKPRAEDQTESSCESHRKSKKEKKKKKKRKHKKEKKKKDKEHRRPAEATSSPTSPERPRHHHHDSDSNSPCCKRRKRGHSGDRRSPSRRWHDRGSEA
UniProt O95297: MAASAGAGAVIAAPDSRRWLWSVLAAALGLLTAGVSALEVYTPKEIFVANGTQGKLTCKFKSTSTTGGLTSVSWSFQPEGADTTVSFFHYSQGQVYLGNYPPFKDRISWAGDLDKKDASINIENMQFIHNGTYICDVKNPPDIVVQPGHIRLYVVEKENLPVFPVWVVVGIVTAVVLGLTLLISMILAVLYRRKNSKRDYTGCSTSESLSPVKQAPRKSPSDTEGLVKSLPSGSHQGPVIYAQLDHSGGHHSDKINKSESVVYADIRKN
UniProt O60291: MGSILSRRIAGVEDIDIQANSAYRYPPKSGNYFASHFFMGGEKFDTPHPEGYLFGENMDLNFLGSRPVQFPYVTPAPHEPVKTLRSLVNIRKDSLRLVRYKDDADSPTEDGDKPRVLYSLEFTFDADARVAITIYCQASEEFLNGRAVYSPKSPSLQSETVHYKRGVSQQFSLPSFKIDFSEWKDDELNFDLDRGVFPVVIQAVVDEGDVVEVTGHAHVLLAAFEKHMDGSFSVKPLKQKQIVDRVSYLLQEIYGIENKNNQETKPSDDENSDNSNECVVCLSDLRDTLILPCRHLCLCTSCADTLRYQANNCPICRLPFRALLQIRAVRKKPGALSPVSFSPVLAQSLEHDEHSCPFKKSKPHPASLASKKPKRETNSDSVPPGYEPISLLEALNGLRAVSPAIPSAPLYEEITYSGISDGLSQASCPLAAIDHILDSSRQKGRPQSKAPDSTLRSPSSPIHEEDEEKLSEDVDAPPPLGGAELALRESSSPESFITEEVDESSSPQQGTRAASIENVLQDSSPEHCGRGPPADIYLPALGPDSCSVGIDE
UniProt Q9Y605: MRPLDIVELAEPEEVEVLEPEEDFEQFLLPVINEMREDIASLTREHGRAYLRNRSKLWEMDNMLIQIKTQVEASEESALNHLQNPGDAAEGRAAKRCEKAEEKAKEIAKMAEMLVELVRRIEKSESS
UniProt P25325: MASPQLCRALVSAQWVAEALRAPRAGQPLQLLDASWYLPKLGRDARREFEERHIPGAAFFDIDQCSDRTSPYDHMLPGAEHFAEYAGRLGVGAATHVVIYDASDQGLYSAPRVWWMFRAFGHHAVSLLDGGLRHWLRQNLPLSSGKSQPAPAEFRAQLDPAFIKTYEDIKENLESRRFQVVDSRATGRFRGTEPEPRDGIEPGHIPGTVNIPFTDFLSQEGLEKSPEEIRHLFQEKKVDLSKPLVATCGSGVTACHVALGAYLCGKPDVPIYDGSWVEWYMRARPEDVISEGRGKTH
UniProt Q96T76: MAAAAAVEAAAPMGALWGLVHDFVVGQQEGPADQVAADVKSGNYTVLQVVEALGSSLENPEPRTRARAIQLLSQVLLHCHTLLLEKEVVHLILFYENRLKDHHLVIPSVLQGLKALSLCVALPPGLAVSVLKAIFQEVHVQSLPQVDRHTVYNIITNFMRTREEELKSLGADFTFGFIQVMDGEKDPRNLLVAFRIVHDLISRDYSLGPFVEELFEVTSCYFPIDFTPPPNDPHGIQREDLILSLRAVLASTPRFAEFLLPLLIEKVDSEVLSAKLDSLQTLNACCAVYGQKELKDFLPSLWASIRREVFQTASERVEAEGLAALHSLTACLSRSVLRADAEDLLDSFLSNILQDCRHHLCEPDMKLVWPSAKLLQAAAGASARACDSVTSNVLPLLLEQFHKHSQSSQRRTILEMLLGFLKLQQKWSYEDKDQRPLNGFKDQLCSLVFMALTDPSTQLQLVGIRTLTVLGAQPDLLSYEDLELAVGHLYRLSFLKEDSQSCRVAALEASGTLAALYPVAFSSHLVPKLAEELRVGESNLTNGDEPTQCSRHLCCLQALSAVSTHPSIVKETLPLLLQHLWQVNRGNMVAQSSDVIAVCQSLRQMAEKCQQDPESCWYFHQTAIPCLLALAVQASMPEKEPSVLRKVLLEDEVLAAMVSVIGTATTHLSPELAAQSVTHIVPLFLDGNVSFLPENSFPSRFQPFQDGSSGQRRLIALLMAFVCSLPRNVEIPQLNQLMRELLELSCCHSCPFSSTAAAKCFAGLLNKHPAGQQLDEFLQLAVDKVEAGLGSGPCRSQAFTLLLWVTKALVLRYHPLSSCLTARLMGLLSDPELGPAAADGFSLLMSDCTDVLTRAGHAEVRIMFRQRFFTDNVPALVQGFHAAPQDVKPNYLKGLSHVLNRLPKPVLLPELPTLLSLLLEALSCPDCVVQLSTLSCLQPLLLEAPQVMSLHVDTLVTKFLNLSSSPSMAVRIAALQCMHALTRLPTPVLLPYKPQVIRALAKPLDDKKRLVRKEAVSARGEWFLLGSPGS
UniProt Q13724: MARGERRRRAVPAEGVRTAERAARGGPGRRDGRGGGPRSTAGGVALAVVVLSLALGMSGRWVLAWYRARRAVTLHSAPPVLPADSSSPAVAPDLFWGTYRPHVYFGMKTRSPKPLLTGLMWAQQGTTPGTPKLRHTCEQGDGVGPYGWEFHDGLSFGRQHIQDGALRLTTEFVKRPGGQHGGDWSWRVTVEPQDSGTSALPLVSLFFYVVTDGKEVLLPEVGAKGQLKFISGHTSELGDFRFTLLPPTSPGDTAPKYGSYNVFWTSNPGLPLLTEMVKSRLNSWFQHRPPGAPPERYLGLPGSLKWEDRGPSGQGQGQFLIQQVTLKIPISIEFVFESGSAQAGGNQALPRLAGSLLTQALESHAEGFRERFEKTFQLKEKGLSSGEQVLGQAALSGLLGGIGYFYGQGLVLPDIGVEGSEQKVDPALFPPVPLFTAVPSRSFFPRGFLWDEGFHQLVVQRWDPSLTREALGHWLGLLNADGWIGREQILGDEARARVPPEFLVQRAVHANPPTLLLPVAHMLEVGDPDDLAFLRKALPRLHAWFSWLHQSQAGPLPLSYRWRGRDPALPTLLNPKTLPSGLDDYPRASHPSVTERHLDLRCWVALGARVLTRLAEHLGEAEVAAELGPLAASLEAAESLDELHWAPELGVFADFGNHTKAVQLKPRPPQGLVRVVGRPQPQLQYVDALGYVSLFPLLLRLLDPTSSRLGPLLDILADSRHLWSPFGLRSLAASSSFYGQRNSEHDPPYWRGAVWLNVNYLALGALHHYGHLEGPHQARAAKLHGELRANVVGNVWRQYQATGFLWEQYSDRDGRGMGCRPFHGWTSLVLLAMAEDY
UniProt Q9NYP9: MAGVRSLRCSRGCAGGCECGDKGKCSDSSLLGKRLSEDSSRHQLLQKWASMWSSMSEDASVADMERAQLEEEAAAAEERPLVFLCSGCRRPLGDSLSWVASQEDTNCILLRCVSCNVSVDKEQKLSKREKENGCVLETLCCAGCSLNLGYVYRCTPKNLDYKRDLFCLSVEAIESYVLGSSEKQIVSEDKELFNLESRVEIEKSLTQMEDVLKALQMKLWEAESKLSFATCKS
UniProt P34949: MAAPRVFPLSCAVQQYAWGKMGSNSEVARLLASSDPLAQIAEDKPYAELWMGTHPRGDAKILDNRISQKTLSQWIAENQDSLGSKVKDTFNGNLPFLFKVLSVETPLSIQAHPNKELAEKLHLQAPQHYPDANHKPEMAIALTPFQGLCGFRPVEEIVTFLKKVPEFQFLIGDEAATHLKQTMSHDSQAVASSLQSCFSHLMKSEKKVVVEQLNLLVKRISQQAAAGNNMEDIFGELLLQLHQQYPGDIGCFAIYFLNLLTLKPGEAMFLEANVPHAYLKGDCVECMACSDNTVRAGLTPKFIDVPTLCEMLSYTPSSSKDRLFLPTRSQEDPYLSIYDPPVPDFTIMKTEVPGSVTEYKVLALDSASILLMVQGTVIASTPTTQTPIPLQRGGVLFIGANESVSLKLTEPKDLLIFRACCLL
UniProt Q8N3F8: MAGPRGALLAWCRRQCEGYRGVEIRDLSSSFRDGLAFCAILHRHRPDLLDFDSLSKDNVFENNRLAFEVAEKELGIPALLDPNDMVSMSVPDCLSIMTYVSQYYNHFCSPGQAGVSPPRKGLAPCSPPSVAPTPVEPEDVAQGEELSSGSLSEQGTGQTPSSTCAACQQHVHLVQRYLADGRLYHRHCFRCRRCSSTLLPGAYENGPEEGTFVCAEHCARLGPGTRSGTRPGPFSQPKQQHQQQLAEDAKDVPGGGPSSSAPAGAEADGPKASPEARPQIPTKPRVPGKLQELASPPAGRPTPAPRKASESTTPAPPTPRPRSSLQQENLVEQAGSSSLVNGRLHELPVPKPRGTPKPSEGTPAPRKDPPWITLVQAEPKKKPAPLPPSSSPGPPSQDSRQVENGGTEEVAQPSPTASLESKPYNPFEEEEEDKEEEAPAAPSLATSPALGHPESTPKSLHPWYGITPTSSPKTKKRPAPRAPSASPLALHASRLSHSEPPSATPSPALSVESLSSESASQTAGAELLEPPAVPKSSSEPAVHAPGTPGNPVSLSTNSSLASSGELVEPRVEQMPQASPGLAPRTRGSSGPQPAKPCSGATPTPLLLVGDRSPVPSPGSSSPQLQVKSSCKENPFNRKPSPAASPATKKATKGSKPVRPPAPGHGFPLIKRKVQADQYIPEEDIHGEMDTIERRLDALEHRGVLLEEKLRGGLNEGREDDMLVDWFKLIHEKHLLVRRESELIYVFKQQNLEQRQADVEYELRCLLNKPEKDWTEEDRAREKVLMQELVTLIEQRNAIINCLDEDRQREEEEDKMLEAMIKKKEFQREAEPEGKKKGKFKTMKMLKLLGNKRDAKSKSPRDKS
UniProt P22033: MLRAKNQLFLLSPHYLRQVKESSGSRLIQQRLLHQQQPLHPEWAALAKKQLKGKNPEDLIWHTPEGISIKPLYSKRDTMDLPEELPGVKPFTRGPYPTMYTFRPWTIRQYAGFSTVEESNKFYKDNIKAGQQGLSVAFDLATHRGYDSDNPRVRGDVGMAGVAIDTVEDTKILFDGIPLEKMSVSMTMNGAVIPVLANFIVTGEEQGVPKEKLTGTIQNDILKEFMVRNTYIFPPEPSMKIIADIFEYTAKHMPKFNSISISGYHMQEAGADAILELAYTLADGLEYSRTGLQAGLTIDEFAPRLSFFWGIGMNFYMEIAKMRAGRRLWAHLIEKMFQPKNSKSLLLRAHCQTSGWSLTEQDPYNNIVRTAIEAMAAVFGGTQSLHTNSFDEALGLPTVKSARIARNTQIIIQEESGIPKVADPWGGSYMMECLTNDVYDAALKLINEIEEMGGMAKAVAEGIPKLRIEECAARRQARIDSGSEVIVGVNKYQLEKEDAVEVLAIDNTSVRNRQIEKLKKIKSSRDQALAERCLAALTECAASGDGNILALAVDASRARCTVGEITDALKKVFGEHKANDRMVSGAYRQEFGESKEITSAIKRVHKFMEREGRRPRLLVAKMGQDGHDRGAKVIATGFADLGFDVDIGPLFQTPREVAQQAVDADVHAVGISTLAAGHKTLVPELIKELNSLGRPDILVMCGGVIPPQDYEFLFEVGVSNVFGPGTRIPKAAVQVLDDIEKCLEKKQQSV
UniProt O95396: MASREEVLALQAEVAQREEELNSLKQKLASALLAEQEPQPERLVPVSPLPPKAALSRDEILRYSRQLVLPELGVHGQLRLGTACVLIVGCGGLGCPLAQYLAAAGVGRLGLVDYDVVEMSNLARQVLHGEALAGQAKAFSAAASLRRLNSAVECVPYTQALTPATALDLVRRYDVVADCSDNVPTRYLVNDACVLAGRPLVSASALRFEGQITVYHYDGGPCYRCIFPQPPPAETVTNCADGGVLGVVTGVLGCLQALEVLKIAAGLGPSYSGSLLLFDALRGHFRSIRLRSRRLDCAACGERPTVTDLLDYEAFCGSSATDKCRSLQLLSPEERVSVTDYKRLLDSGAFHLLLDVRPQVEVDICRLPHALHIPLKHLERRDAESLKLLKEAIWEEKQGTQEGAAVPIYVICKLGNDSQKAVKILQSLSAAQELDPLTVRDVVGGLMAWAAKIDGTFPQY

Legend:
Assay in all cases: log2 fold change, soluble protein after heating vs DMSO (PISA); higher = thermal stabilisation; K562 lysate, 10 uM; active = over 0.2 and 3.5 SD of the protein, either way, in both replicates (recomputed)
lapatinib = compound: CS(=O)(=O)CCNCc1ccc(-c2ccc3ncnc(Nc4ccc(OCc5cccc(F)c5)c(Cl)c4)c3c2)o1 [lapatinib]
In short: (§1)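 Following dounce homogenisation of K562 pellets in PBS pH 7.4 with 1 mM MgCl2, crude extract at 1 mg/mL protein was incubated for 30 min with 10 μM compound. Aliquots were then heated for 3 min over 48°C-58°C and pooled, NP-40 was added to 0.5% at 4°C, and soluble protein was recovered as the supernatant at 21,000xg for 90 min. Channel-sum-equalised TMTpro 16plex LC-MS/MS quantified this protein. Each value, from duplicates, is a log-two fold change in thermal stability relative to solvent controls.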

pictilisib = compound: CS(=O)(=O)N1CCN(Cc2cc3nc(-c4cccc5[nH]ncc45)nc(N4CCOCC4)c3s2)CC1 [pictilisib]
In short: as §1

crizotinib = compound: C[C@@H](Oc1cc(-c2cnn(C3CCNCC3)c2)cnc1N)c1c(Cl)ccc(F)c1Cl [crizotinib]
In short: as §1

[1] = compound: C[C@H](C1=CC=C(C=C1)C(=O)NC2=C3C=CNC3=NC=C2)N
In short: as §1

duvelisib = compound: C[C@H](Nc1ncnc2nc[nH]c12)c1cc2cccc(Cl)c2c(=O)n1-c1ccccc1 [duvelisib]
In short: as §1

gandotinib = compound: Cc1cc(Nc2cc(CN3CCOCC3)c3nc(C)c(Cc4ccc(Cl)cc4F)n3n2)n[nH]1 [gandotinib]
In short: as §1

tozasertib = compound: Cc1cc(Nc2cc(N3CCN(C)CC3)nc(Sc3ccc(NC(=O)C4CC4)cc3)n2)n[nH]1 [tozasertib]
In short: as §1

doramapimod = compound: Cc1ccc(-n2nc(C(C)(C)C)cc2NC(=O)Nc2ccc(OCCN3CCOCC3)c3ccccc23)cc1 [doramapimod]
In short: as §1

bafetinib = compound: Cc1ccc(NC(=O)c2ccc(CN3CC[C@H](N(C)C)C3)c(C(F)(F)F)c2)cc1Nc1nccc(-c2cncnc2)n1 [bafetinib]
In short: as §1

[2] = compound: Cc1cccc(CC(=O)N2CCc3c2ccc(-c2cn(C)c4ncnc(N)c24)c3F)n1
In short: as §1

Target | log2 fold change (lapatinib) | log2 fold change (pictilisib) | log2 fold change (crizotinib) | log2 fold change [1] | log2 fold change (duvelisib) | log2 fold change (gandotinib) | log2 fold change (tozasertib) | log2 fold change (doramapimod) | log2 fold change (bafetinib) | log2 fold change [2]
MPHOSPH10 (UniProt O00566) | inactive: 0.026 | inactive: 0.03 | inactive: -0.033 | inactive: 0.113 | inactive: 0.005 | inactive: -0.016 | inactive: 0.029 | inactive: 0.009 | inactive: -0.048 | inactive: -0.024
MICU1 isoform 3 (UniProt Q9BPX6) | inactive: -0.052 | inactive: -0.053 | inactive: -0.107 | active: 0.253 | inactive: -0.007 | active: -0.408 | inactive: 0.049 | inactive: -0.008 | inactive: -0.077 | inactive: -0.209
MIF4GD isoform 3 (UniProt A9UHW6) | inactive: -0.008 | inactive: -0.054 | inactive: 0.012 | inactive: 0.023 | inactive: 0.041 | inactive: 0.021 | inactive: 0.005 | inactive: 0.025 | inactive: -0.03 | inactive: 0.013
MMTAG2 (UniProt Q9BU76) | inactive: -0.045 | inactive: 0.008 | inactive: -0.006 | inactive: 0.051 | inactive: -0.023 | inactive: -0.073 | inactive: -0.027 | inactive: -0.008 | inactive: -0.051 | inactive: 0.014
MMS22L (UniProt Q6ZRQ5) | inactive: -0.101 | inactive: -0.034 | inactive: 0.113 | inactive: 0.065 | inactive: -0.106 | inactive: -0.169 | inactive: 0.087 | inactive: -0.018 | inactive: -0.152 | inactive: -0.029
MIEN1 (UniProt Q9BRT3) | inactive: 0.014 | inactive: 0.018 | inactive: 0.109 | inactive: 0.066 | inactive: -0.025 | inactive: -0.038 | inactive: 0.041 | inactive: -0.065 | inactive: -0.023 | inactive: -0.012
MPZL1 (UniProt O95297) | inactive: -0.006 | inactive: -0.026 | inactive: 0.074 | inactive: 0.132 | inactive: 0.001 | inactive: -0.009 | inactive: -0.029 | inactive: -0.087 | inactive: -0.027 | inactive: -0.107
MGRN1 isoform 2 (UniProt O60291) | inactive: -0.013 | inactive: 0.19 | inactive: 0.108 | inactive: 0.008 | inactive: 0.054 | inactive: 0.09 | inactive: -0.066 | inactive: -0.092 | inactive: -0.104 | inactive: -0.072
MRFAP1 (UniProt Q9Y605) | inactive: -0.052 | inactive: 0.016 | inactive: 0.032 | inactive: -0.038 | inactive: -0.01 | inactive: 0 | inactive: 0.043 | inactive: -0.041 | inactive: 0.016 | inactive: -0.16
MPST isoform 2 (UniProt P25325) | inactive: -0.01 | inactive: -0.044 | inactive: -0.016 | inactive: -0.036 | inactive: -0.003 | inactive: 0.004 | inactive: -0.029 | inactive: 0.016 | inactive: -0.019 | inactive: -0.017
MMS19 isoform 8 (UniProt Q96T76) | inactive: -0.03 | inactive: -0.04 | inactive: -0.074 | inactive: 0.049 | inactive: -0.003 | inactive: -0.101 | inactive: -0.004 | inactive: 0.023 | inactive: -0.066 | inactive: 0.004
MOGS (UniProt Q13724) | inactive: -0.047 | inactive: -0.031 | inactive: -0.01 | inactive: 0.036 | inactive: -0.021 | inactive: -0.043 | inactive: 0 | inactive: 0.034 | inactive: -0.048 | inactive: 0.03
MME (UniProt P08473) | inactive: 0.025 | inactive: -0.024 | inactive: 0.037 | inactive: 0.037 | inactive: 0.066 | inactive: -0.002 | – | inactive: 0.002 | inactive: 0.058 | inactive: 0.048
MON2 isoform 5 (UniProt Q7Z3U7) | inactive: -0.034 | inactive: -0.027 | inactive: -0.077 | inactive: -0.042 | inactive: 0.003 | inactive: -0.031 | inactive: 0.001 | inactive: -0.011 | inactive: -0.035 | inactive: 0.12
MIS18A (UniProt Q9NYP9) | inactive: 0 | inactive: 0.03 | inactive: 0.069 | inactive: 0.175 | inactive: 0.015 | inactive: -0.074 | inactive: 0.055 | inactive: 0.028 | inactive: -0.052 | inactive: -0.121
MPI (UniProt P34949) | inactive: 0.02 | inactive: -0.017 | inactive: -0.029 | inactive: 0.174 | inactive: 0.007 | inactive: -0.055 | inactive: -0.043 | inactive: 0.032 | inactive: 0.013 | inactive: -0.014
MICALL1 (UniProt Q8N3F8) | inactive: -0.012 | inactive: 0.013 | inactive: -0.007 | inactive: 0.002 | inactive: -0.001 | inactive: -0.024 | inactive: 0.013 | inactive: 0.015 | inactive: -0.048 | inactive: -0.015

Target | log2 fold change (lapatinib) | log2 fold change (pictilisib) | log2 fold change (crizotinib) | log2 fold change [1] | log2 fold change (duvelisib) | log2 fold change (gandotinib) | log2 fold change (tozasertib) | log2 fold change (doramapimod) | log2 fold change (bafetinib) | log2 fold change [2]
MPV17 (UniProt P39210) | inactive: -0.068 | inactive: 0.133 | inactive: 0 | inactive: -0.028 | inactive: -0.03 | inactive: 0.326 | inactive: 0.059 | inactive: 0.092 | inactive: 0.096 | inactive: 0.045
MRM3 (UniProt Q9HC36) | inactive: 0.017 | inactive: -0.042 | inactive: 0.009 | inactive: 0.103 | inactive: 0.011 | inactive: 0.045 | inactive: 0.005 | inactive: -0.02 | inactive: -0.028 | inactive: 0.074
MOCS1 isoform 8 (UniProt Q9NZB8) | inactive: -0.022 | inactive: -0.003 | inactive: -0.046 | inactive: -0.078 | inactive: 0 | inactive: 0.012 | inactive: 0.11 | inactive: 0.018 | inactive: -0.032 | inactive: 0.04
MRPL10 isoform 2 (UniProt Q7Z7H8) | inactive: -0.02 | inactive: -0.041 | inactive: -0.104 | inactive: 0.152 | inactive: 0.034 | inactive: -0.037 | inactive: -0.01 | inactive: 0.104 | inactive: -0.059 | inactive: -0.012
MLH1 (UniProt P40692) | inactive: -0.006 | inactive: 0.001 | inactive: -0.085 | inactive: -0.035 | inactive: 0.016 | inactive: -0.04 | inactive: -0.043 | inactive: 0.013 | inactive: -0.063 | inactive: 0.038
MLX (UniProt Q9UH92) | inactive: 0.006 | inactive: -0.029 | inactive: -0.117 | inactive: -0.12 | inactive: 0.062 | inactive: -0.075 | inactive: 0.05 | inactive: 0.04 | inactive: -0.119 | inactive: 0.136
MIA3 (UniProt Q5JRA6) | inactive: -0.009 | inactive: -0.045 | inactive: 0.04 | inactive: 0.024 | inactive: 0.005 | inactive: -0.07 | inactive: 0.05 | inactive: -0.001 | inactive: 0.021 | inactive: -0.02
MPHOSPH8 (UniProt Q99549) | inactive: -0.011 | inactive: -0.287 | inactive: -0.04 | inactive: 0 | inactive: -0.006 | inactive: 0.023 | inactive: -0.038 | inactive: -0.04 | inactive: -0.558 | inactive: 0.04
MMADHC (UniProt Q9H3L0) | inactive: -0.024 | inactive: 0.017 | inactive: 0.012 | inactive: -0.029 | inactive: -0.029 | inactive: -0.026 | inactive: 0.009 | inactive: -0.007 | inactive: -0.049 | inactive: 0.012
MMAB (UniProt Q96EY8) | inactive: 0.008 | inactive: 0 | inactive: 0 | inactive: -0.038 | inactive: 0.005 | inactive: -0.005 | inactive: -0.008 | inactive: -0.03 | inactive: 0.037 | inactive: -0.013
MMUT (UniProt P22033) | inactive: 0.007 | inactive: -0.008 | inactive: 0.03 | inactive: -0.031 | inactive: -0.011 | inactive: -0.022 | inactive: 0.024 | inactive: -0.02 | inactive: -0.043 | inactive: 0
MOCS3 (UniProt O95396) | – | inactive: 0.004 | inactive: -0.127 | inactive: -0.176 | inactive: 0.009 | inactive: 0.227 | inactive: 0.027 | inactive: 0.072 | inactive: -0.054 | inactive: 0.348
MICAL2 (UniProt O94851) | inactive: -0.355 | inactive: -0.116 | inactive: -0.04 | inactive: 0.005 | inactive: 0.039 | inactive: 0.022 | – | inactive: 0.067 | inactive: -0.75 | inactive: 0.126
MRPL18 (UniProt Q9H0U6) | inactive: 0.015 | – | inactive: -0.023 | inactive: 0.045 | inactive: 0.093 | inactive: -0.1 | inactive: 0.062 | inactive: 0.033 | – | inactive: 0.083
MILR1 (UniProt Q7Z6M3) | – | – | inactive: -0.015 | – | – | – | inactive: -0.116 | inactive: 0.031 | – | –
MPDZ (UniProt O75970) | inactive: 0.046 | – | inactive: 0.127 | inactive: 0.099 | inactive: -0.003 | inactive: 0.016 | inactive: 0.118 | inactive: 0.053 | – | inactive: -0.066

Single records (already shown). Order of values: log2 fold change (lapatinib)	log2 fold change (pictilisib)	log2 fold change (crizotinib)	log2 fold change [1]	log2 fold change (duvelisib)	log2 fold change (gandotinib)	log2 fold change (tozasertib)	log2 fold change (doramapimod)	log2 fold change (bafetinib)	log2 fold change [2]
MIF4GD isoform 3 (UniProt A9UHW6) is listed with inactive: -0.008	inactive: -0.054	inactive: 0.012	inactive: 0.023	inactive: 0.041	inactive: 0.021	inactive: 0.005	inactive: 0.025	inactive: -0.03	inactive: 0.013
MPI (UniProt P34949) is listed with inactive: 0.02	inactive: -0.017	inactive: -0.029	inactive: 0.174	inactive: 0.007	inactive: -0.055	inactive: -0.043	inactive: 0.032	inactive: 0.013	inactive: -0.014
